# Measurements: PubChem BioAssay AID1259415 (National Center for Advancing Translational Sciences (NCATS), 2018)
# The whole screen tested about 410,000 compounds, of which about 18,000 (4.4%) were called active. Inconclusive results, whose numbers are uncertain, are shown with a selection of clear calls. Cut-off read from the data, not from the text of the source: active = activity change below about -60%; inconclusive = no clear call, values can overlap the other calls; inactive = above about -39%.
# Test: qHTS Assay for inhibitors of the human cytomegalovirus (HCMV)
# Details: HFF cells, HCMV-luciferase reporter, 72 h; at 57.5 µM; hits give low values
# In short: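 Inhibition of viral replication was scored as loss of reporter luminescence in HFFs infected with HCMV-luciferase (MOI 1 PFU/cell) for 72 h; compounds tested at 2 doses, normalized to buffer and Salinomycin controls.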
# % is set by controls: 0 for no effect and ±100 for the full control effect.
row,SMILES,"activity change, negative = inhibition"
1,CC(C)(C)c1ccc(S(=O)(=O)Nc2ccc(O)c(Sc3nc4ccccc4s3)c2)cc1,inactive: -13.2%
2,O=c1[nH]n(-c2ncnc3c2cnn3-c2ccccc2)c(=O)c2ccccc12,inconclusive: -43.9%
3,CCCN(C(=O)/C=C/c1nc2ccccc2s1)C1CCS(=O)(=O)C1 (centres undefined),inactive: -8.15%
4,C[C@H](NS(=O)(=O)OCC(Cl)(Cl)Cl)C1CC1c1ccccc1 (some centres undefined),inconclusive: -54.8%
5,O=C(C(Cl)Cl)N1CCN(Cc2ccccc2)CC1,inconclusive: -44%
6,CC(C)c1ccccc1NC(=O)CSc1nnc(COc2ccccc2Cl)o1,inactive: -12.7%
7,COc1cccc(NC(=O)Cc2csc(NC(=O)Nc3ccccc3OC)n2)c1,inactive: 12.5%
8,Cc1cccnc1C(NC(=O)C1CCN(CCCOc2ccccc2)CC1)c1ccc(F)cc1 (centres undefined),inactive: 41%
9,COC(=O)c1ccc(OCC(=O)c2ccc(O)cc2O)cc1,active: -61.1%
10,Cc1ccc(NC(=O)CSc2nnc(-c3ccccn3)n2N)c(Br)c1,inconclusive: -49.3%
11,FC(F)(F)c1ccc(/C=N/n2c(COc3ccccc3)n[nH]c2=S)cc1,active: -66.1%
12,COc1ccc2c(c1)c1c(c(=O)n(CCc3ccccc3)c(=O)n1Cc1ccc(Cl)cc1)n2C,inactive: 32.8%
13,N/C(=N\OC(=O)CCCc1ccccc1)c1cccnc1,inactive: 27.1%
14,COc1cc(NC(=O)N2CCN(c3cc(-c4noc(C)n4)ccc3C)CC2)cc(OC)c1OC,inactive: -6.46%
15,Cc1ccc(-c2csc3ncnc(NS(=O)(=O)c4ccc(Cl)cc4)c23)cc1,inconclusive: -58.4%
16,CC1CCCN(C(=O)C2CCN(CC(C)c3ccccc3)CC2)C1 (centres undefined),inconclusive: -43.3%
17,O=[N+]([O-])c1ccc(Nc2c3ccccc3nc3ccccc23)cc1,active: -90.1%
18,COC(=O)CCN1CCN(S(=O)(=O)c2ccccc2Br)CC1,inconclusive: -43.1%
19,CCN(c1ccc(OC)cc1)c1ncnc2nc[nH]c12,active: -88.2%
20,O=C(Nc1nnc(C(F)(F)F)s1)C1COc2ccccc2O1 (centres undefined),inconclusive: -41.6%
21,CCN(c1cc(C)cc(C)c1)S(=O)(=O)c1nnc(NC(=O)c2cccc(F)c2)s1,inconclusive: -58.5%
22,O=[N+]([O-])c1cccc(C(=S)N2CCN(c3ccccc3F)CC2)c1,inconclusive: -46.7%
23,COc1ccc(CNC(=S)Nc2ccc(Br)cc2)cc1,inconclusive: -44.6%

row,SMILES,"activity change, negative = inhibition"
1,Cc1cc(C(=O)CS(=O)(=O)c2ccc(Cl)cc2)cc(C)c1O,inactive: 18%
2,Cc1ccc(Cn2c(SCC(=O)N3CC(=O)Nc4ccccc43)nc3ccccc3c2=O)cc1,active: -76.3%
3,Cn1c(SCC(=O)c2ccc3c(c2)Cc2ccccc2-3)nnc1-c1cccc(N)c1,inconclusive: -42.9%
4,Cc1ccc(OCCCCNC(C)(C)C)c([N+](=O)[O-])c1,inactive: -13.2%
5,c1ccc(-c2sc3ccccc3c2-c2ccc(OCCN3CCCC3)cc2)cc1,inactive: -0.3%
6,O=C(COC(=O)c1ccc(Br)o1)NC1CCCc2ccccc21 (centres undefined),inconclusive: -50.3%
7,CC(=O)c1cccc(NC(=O)CN(C)S(=O)(=O)c2cccc3nsnc23)c1,inconclusive: -44.1%
8,O=C(C1CCC(=O)N(C2CCCC2)C1)N1CCN(Cc2cccc(Cl)c2)CC1 (centres undefined),active: -71.6%
9,O=C(/C=C/c1ccccc1)N1CCN(Cc2cc(=O)n3nc(-c4ccccc4)sc3n2)CC1,inconclusive: -41.3%
10,Cc1nn(CCOc2ccccc2)c(=O)n1-c1ccccc1F,inactive: 69.3%
11,COc1ccc(NC(=O)C2(N(C(=O)Cn3nnnc3N)c3ccc(OC)cc3)CCCCC2)cc1,inconclusive: -41.6%
12,CCCc1cc(=O)[nH]c(SCC(=O)N2CCCCCC2)n1,inactive: -19.6%
13,CCn1cc(CN2CCC(n3nccc3NC(=O)CCCc3ccccc3)CC2)cn1,inconclusive: -46.6%
14,C=CCc1ccc(OC(=O)NC2CCCCC2)c(OC)c1,inactive: -2.48%
15,O=C(Nc1nnc(CSCc2ccc(F)cc2)s1)c1cccc([N+](=O)[O-])c1,inactive: -4.32%
16,CN(CCc1cnn(C)c1)Cc1cn(C)nc1-c1ccc2c(c1)OCCO2,inactive: -2.24%
17,CCCC1=Nc2cc(C(=O)NCCc3ccc(OCC)cc3)ccc2Sc2ccccc21,inconclusive: -42.3%
18,N=C1C=CC=C2C1=NC1(CCCCC1)N2O,inconclusive: -44%
19,Cc1cc(C)n(Cc2ccc(NC(=O)c3ccc(COc4ccccc4Br)cc3)cc2)n1,active: -90.4%
20,Cc1ccc(NC(=O)C2CCN(C(=O)[C@@H]3Cc4ccccc4CN3)CC2)cc1,inactive: -2.58%
21,CC(C)(C)N/N=C/c1c(O)n(-c2ccc(Cl)cn2)c(=O)c2ccccc12,inconclusive: -42%
22,O=C(CNc1ccc(F)cc1)N/N=C/c1c(O)ccc2ccccc12,active: -97.3%
23,O=C(NCc1ccccc1)C1CCCN(c2ncnc3c2nc2n3CCCCC2)C1 (centres undefined),inconclusive: -44.4%

row,SMILES,"activity change, negative = inhibition"
1,CC1=C(C(=O)Nc2cccc(F)c2)C(c2ccsc2)C2=C(CC(C)(C)CC2=O)N1 (centres undefined),inconclusive: -58.2%
2,O=C(Cc1ccccc1Cl)NCCCn1ccnc1,inconclusive: -53.5%
3,COc1ccc(/C(C)=N/NC(=O)CNC(=O)c2ccco2)c(OC)c1,inconclusive: -50.8%
4,CC1(C(=O)NCc2ccc(Cl)c(Cl)c2)Oc2ccccc2NC1=O (centres undefined),inconclusive: -45.8%
5,Cc1nc(N2CCOCC2)nc(N2CCN(c3ccccc3)CC2)c1[N+](=O)[O-],inconclusive: -55%
6,COc1ccc(NC(=O)CSc2nc3cccnc3n2C)cc1,inconclusive: -48.2%
7,O=C(NCC(c1ccc2c(c1)OCO2)N1CCN(c2ccccc2)CC1)C(=O)Nc1cccc(F)c1 (centres undefined),inactive: -2.17%
8,CCN(CC)C(=O)CSc1nc2cc3c(cc2c(=O)n1CCCCCC(=O)NCc1ccc(OC)cc1)OCO3,inconclusive: -54.2%
9,CSc1nnc(CNC(=O)c2ccccc2)n1-c1ccc(F)cc1,inconclusive: -47.3%
10,N#CCCn1cc(/C=C2\NC(=S)N(c3ccccc3)C2=O)c(-c2ccc(F)cc2)n1,active: -62.6%
11,N=c1ccn2c(n1)O[C@H]1[C@H](O)[C@@H](CO)O[C@H]12,active: -96.3%
12,CC(OC(=O)CCc1nc2ccccc2[nH]c1=O)C(=O)c1ccccc1 (centres undefined),inconclusive: -41.4%
13,CCOC(=O)c1ccc(Nc2nc3nonc3nc2Nc2cccc(C)c2C)cc1,active: -97.2%
14,O=C(N/N=C/c1cccc(Cl)c1)C1CCCC1,inactive: 33.2%
15,COc1ccccc1NC(=O)Cn1c(=O)n(Cc2cccs2)c(=O)c2cccnc21,active: -64.3%
16,NC(=O)CSc1nnc(-c2ccncc2)n1-c1ccc(Cl)cc1,inconclusive: -50.3%
17,O=C(NN1C(=O)C2C3C=CC(C4CC34)C2C1=O)c1ccc(Cl)c(Cl)c1 (centres undefined),inconclusive: -42.9%
18,CNS(=O)(=O)c1ccc(NC(=O)c2cc(-c3ccncc3)nc3ccc(Cl)cc23)cc1,inconclusive: -41.6%
19,Cc1csc(SCC(=O)N(c2ccccc2)C(C)C)n1,inconclusive: -44.6%
20,COc1ccc(S(=O)(=O)N2CCOC23CCN(S(=O)(=O)c2c(C)cc(C)cc2C)CC3)cc1,inconclusive: -46.5%
21,Nc1nc(-c2ccccc2)c(-c2ccc([N+](=O)[O-])cc2)s1,inconclusive: -60%
22,CC(=O)C(C(=O)Nc1c(C)cccc1C)N(Cc1ccco1)C(=O)C(=O)c1ccccc1 (centres undefined),inactive: -12.2%
23,Oc1ccc2ccccc2c1/C=N/Nc1nnc(-c2ncc[nH]2)c2ccccc12,active: -102%

# Reformatted as tab-separated lines: six of the compounds above
row	SMILES	activity change, negative = inhibition
6	O=C(COC(=O)c1ccc(Br)o1)NC1CCCc2ccccc21 (centres undefined)	inconclusive: -50.3%
7	CC(=O)c1cccc(NC(=O)CN(C)S(=O)(=O)c2cccc3nsnc23)c1	inconclusive: -44.1%
8	O=C(C1CCC(=O)N(C2CCCC2)C1)N1CCN(Cc2cccc(Cl)c2)CC1 (centres undefined)	active: -71.6%
9	O=C(/C=C/c1ccccc1)N1CCN(Cc2cc(=O)n3nc(-c4ccccc4)sc3n2)CC1	inconclusive: -41.3%
10	Cc1nn(CCOc2ccccc2)c(=O)n1-c1ccccc1F	inactive: 69.3%
11	COc1ccc(NC(=O)C2(N(C(=O)Cn3nnnc3N)c3ccc(OC)cc3)CCCCC2)cc1	inconclusive: -41.6%

# Later entries.

row,SMILES,"activity change, negative = inhibition"
1,CCc1ccccc1NC(=O)c1ccc(NCCc2ccccc2)c([N+](=O)[O-])c1,inactive: -39.5%
2,CN1C(=O)Cc2cc(S(=O)(=O)N3CCN(c4cccc(C(F)(F)F)c4)CC3)ccc21,inconclusive: -46.3%
3,Cn1c(Cl)cnc1C(O)(c1ccccc1)c1ccccc1,inconclusive: -43.6%
4,COc1cc(C2C(C#N)=C(N)Oc3cc(N(C)C)ccc32)cc2c1OCO2 (centres undefined),active: -77.7%
5,COc1ccc([N+](=O)[O-])cc1NC(=O)Nc1cccc(Cl)c1,active: -61.7%
6,COc1ccc(N2CCN(C(=O)CC3NC4CCCCC4NC3=O)CC2)cc1 (centres undefined),inconclusive: -50.6%
7,Cc1[nH]c2ccccc2c1C(=O)CCl,inconclusive: -51.2%
8,NC(=O)c1cc2ccncc2c2ccccc12,active: -98.6%
9,Cc1ccc(CNC(=O)C(=O)NCC(c2cccnc2)N2CCN(c3ccc(F)cc3)CC2)cc1 (centres undefined),inconclusive: -55.4%
10,CN(C)CCN1CC(C(=O)O)CC1=O (centres undefined),inconclusive: -46.5%
11,O=c1oc2ccccc2c(Nc2ccc(F)cc2)c1[N+](=O)[O-],inactive: 54%
12,COc1ccc(C(O)c2nc(-c3cccc4cccnc34)cs2)cc1 (centres undefined),inactive: -0.824%
13,COc1ccc(O)c(C(=O)/C=C/c2cc3ccccc3o2)c1,inactive: 2.82%
14,CCCCOc1ccc(C(=O)NCc2ccncc2)cc1,inconclusive: -52.4%
15,CC1(C)Oc2ccc(C(=O)N3CCCCC3)cc2N(CC(=O)NCc2ccccc2)C1=O,inconclusive: -44.6%
16,Brc1ccc(-c2csc(Nc3nc(-c4ccc(Br)cc4)cs3)n2)cc1,active: -86.7%
17,BrCCOCCOc1ccc2ccccc2c1,inactive: 0.637%
18,COc1ccc(N2CCN(c3cc(C)c4ccc(C)cc4n3)CC2)cc1,active: -64.3%
19,Cc1cccc(NC(=O)Cn2cc(C(=O)C3CCCCC3)c3ccccc32)c1C,active: -92.6%
20,Cc1ccc(Cn2cc(SCC(N)=O)c3ccccc32)cc1,inconclusive: -43.7%
